To fix the notation:
B1: RPS7A (protein, UniProt Q9C514 1-191)
chain: MFSAQHKIHKEKGVELSELDEQVAQAFFDLENTNQELKSELKDLYVNSAVQVDISGGRKAIVVNVPYRLRKAYRKIHVRLVRELEKKFSGKDVILIATRRIVRPPKKGSAAKRPRNRTLTSVHEAILDDVVLPAEIVGKRTRYRLDGTKIMKVFLDPKERNNTEYKVEAFSAVYKKLTGKDVVFEFPITEA
B2: PMI1 (protein, UniProt Q9C8E6 1-843)
chain: MAGEYSGSRSSNTQLLAELEALSENLYQKPQVSVGNRRTNSLALPRSSVPSLVTSADEVSTARAEDLTVSKPRARRLSLSPWRSRPKLEVEEEENVTQSNRIVKKPEESSSGSGVKEEKKGIWNWKPIRGLVRIGMQKLSCLLSVEVVAAQNLPASMNGLRLGVCVRKKETKDGAVQTMPCRVSQGSADFEETLFIKCHVYYSPANGKGSPAKFEARPFLFYLFAVDAKELEFGRHVVDLSELIQESVEKMNYEGARVRQWDMNWGLSGKAKGGELALKLGFQIMEKDGGAGIYSKQGEFGMKPSSKPKNFANSFGRKQSKTSFSVPSPKMTSRSEAWTPASGVESVSDFHGMEHLNLDEPEEKPEEKPVQKNDKPEQRAEDDQEEPDFEVVDKGVEFDDDLETEKSDGTIGERSVEMKEQHVNVDDPRHIMRLTELDSIAKQIKALESMMKDESDGGDGETESQRLDEEEQTVTKEFLQLLEDEETEKLKFYQHKMDISELRSGESVDDESENYLSDLGKGIGCVVQTRDGGYLVSMNPFDTVVMRKDTPKLVMQISKQIVVLPEAGPATGFELFHRMAGSGEELESKISSLMAIDELMGKTGEQVAFEGIASAIIQGRNKERANTSAARTVAAVKTMANAMSSGRRERIMTGIWNVEENPLTSAEEVLAVSLQKLEEMVVEGLKIQADMVDDEAPFEVSAAKGQKNPLESTIPLEEWQKEHRTQQKLTVLATVQLRDPTRRYEAVGGTVVVAVQAEEEEEKGLKVGSLHIGGVKKDAAEKRRLTAAQWLVEHGMGKKGKKKSNIKKKEKEEEEEEMLWSLSSRVMADMWLKSIRNPDVKLH
B3: At5g16730 (protein, UniProt Q9LFE4 85-853)
chain: VAAVKGTESPQTTTRLSQIKEDLKKANERISSLEKDKAKALDELKQAKKEAEQVTLKLDDALKAQKHVEENSEIEKFQAVEAGIEAVQNNEEELKKELETVKNQHASDSAALVAVRQELEKINEELAAAFDAKSKALSQAEDASKTAEIHAEKVDILSSELTRLKALLDSTREKTAISDNEMVAKLEDEIVVLKRDLESARGFEAEVKEKEMIVEKLNVDLEAAKMAESNAHSLSNEWQSKAKELEEQLEEANKLERSASVSLESVMKQLEGSNDKLHDTETEITDLKERIVTLETTVAKQKEDLEVSEQRLGSVEEEVSKNEKEVEKLKSELETVKEEKNRALKKEQDATSRVQRLSEEKSKLLSDLESSKEEEEKSKKAMESLASALHEVSSEGRELKEKLLSQGDHEYETQIDDLKLVIKATNEKYENMLDEARHEIDVLVSAVEQTKKHFESSKKDWEMKEANLVNYVKKMEEDVASMGKEMNRLDNLLKRTEEEADAAWKKEAQTKDSLKEVEEEIVYLQETLGEAKAESMKLKENLLDKETEFQNVIHENEDLKAKEDVSLKKIEELSKLLEEAILAKKQPEEENGELSESEKDYDLLPKVVEFSSENGHRSVEEKSAKVETLDHEPPQEQISNGNSNGNGMEEKEVNGKPEVETEKKEKKDESQDDDKDDSVEVIFKMWESCQIEKKEAFPDKKSELESQEEEEDSSKIDESDKTSTENIDETGNALTAEDQLTMEKKIKKKKTLLGKVGNLLKKKAPVNQK
B4: PATL1 (protein, UniProt Q56WK6 1-573)
chain: MAQEEVQKSADVAAAPVVKEKPITDKEVTIPTPVAEKEEVAAPVSDEKAVPEKEVTPEKEAPAAEAEKSVSVKEEETVVVAEKVVVLTAEEVQKKALEEFKELVREALNKREFTAPVTPVKEEKTEEKKTEEETKEEEKTEEKKEETTTEVKVEEEKPAVPAAEEEKSSEAAPVETKSEEKPEEKAEVTTEKASSAEEDGTKTVEAIEESIVSVSPPESAVAPVVVETVAVAEAEPVEPEEVSIWGVPLLQDERSDVILTKFLRARDFKVKEALTMLKNTVQWRKENKIDELVESGEEVSEFEKMVFAHGVDKEGHVVIYSSYGEFQNKELFSDKEKLNKFLSWRIQLQEKCVRAIDFSNPEAKSSFVFVSDFRNAPGLGKRALWQFIRRAVKQFEDNYPEFAAKELFINVPWWYIPYYKTFGSIITSPRTRSKMVLAGPSKSADTIFKYIAPEQVPVKYGGLSKDTPLTEETITEAIVKPAANYTIELPASEACTLSWELRVLGADVSYGAQFEPTTEGSYAVIVSKTRKIGSTDEPVITDSFKVGEPGKIVITIDNQTSKKKKVLYRFKTQ
B5: PATL4 (protein, UniProt Q94C59 1-540)
chain: MTAEVKVEEKQVESEVVIAPAVVPEETTVKAVVEETKVEEDESKPEGVEKSASFKEESDFFADLKESEKKALSDLKSKLEEAIVDNTLLKTKKKESSPMKEKKEEVVKPEAEVEKKKEEAAEEKVEEEKKSEAVVTEEAPKAETVEAVVTEEIIPKEEVTTVVEKVEEETKEEEKKTEDVVTEEVKAETIEVEDEDESVDKDIELWGVPLLPSKGAESTDVILLKFLRARDFKVNEAFEMLKKTLKWRKQNKIDSILGEEFGEDLATAAYMNGVDRESHPVCYNVHSEELYQTIGSEKNREKFLRWRFQLMEKGIQKLNLKPGGVTSLLQIHDLKNAPGVSRTEIWVGIKKVIETLQDNYPEFVSRNIFINVPFWFYAMRAVLSPFLTQRTKSKFVVARPAKVRETLLKYIPADELPVQYGGFKTVDDTEFSNETVSEVVVKPGSSETIEIPAPETEGTLVWDIAVLGWEVNYKEEFVPTEEGAYTVIVQKVKKMGANEGPIRNSFKNSQAGKIVLTVDNVSGKKKKVLYRYRTKTESSS
B6: REM1.2 (protein, UniProt Q9M2D8 1-212)
chain: MAEEQKIALESESPAKVTTPAPADTPAPAPAEIPAPAPAPTPADVTKDVAEEKIQNPPPEQIFDDSKALTVVEKPVEEPAPAKPASASLDRDVKLADLSKEKRLSFVRAWEESEKSKAENKAEKKIADVHAWENSKKAAVEAQLKKIEEQLEKKKAEYAERMKNKVAAIHKEAEERRAMIEAKRGEDVLKAEETAAKYRATGIVPKATCGCF
B7: At5g55860 (protein, UniProt Q9LVQ4 1-649)
chain: MVAKKGRRDSSDSSPIVEVGEIDTSAPFQSVKDAVNLFGEAAFSAEKPVFRKPNPQSAEKVLVKQTELHLAQKELNKLKEQLKNAETIREQALSELEWSKRTVDELTRKLEAVNESRDSANKATEAAKSLIEEAKPGNVSVASSSDAQTRDMEEYGEVCKELDTAKQELRKIRQVSNEILETKTVALSKVEEAKKVSKVHSEKIELLRKEIAAVNESVEQTKLACSQARKEQSEIFAEKEIQQKSYKAGMEESAKKSLALKNEFDPEFAKKLEVQLTETYNEIDELQKQMETAKASDIDSVNGVSLELNEAKGLFEKLVEEEKSLQELVESLKAELKNVKMEHDEVEAKEAEIESVAGDLHLKLSRSKSELEQCVTEESKAKAALEDMMLTINQISSETEAARREAEGMRNKAKELMKEAESAHLALEDSELHLRVALDEAEEAKAAETKALEQIKSMSEKTNAARNSTSSESGSQSITLSQEEFKSLSKRAEVFDKLAEMKVAAALAQVEAVRASENETLKKLETTQEEIKKLKTATEEALKKAAMADAAKKAVEGELRRWRERDQKKAEEAATRILAEAEMKMASESSPQQHYKAPKQKPVNNKLEKTKTSVVSKKVLMPNLSGIFNRKKNQVEWGSPSYLPGEKPF
B8: PATL2 (protein, UniProt Q56ZI2 1-683)
chain: MAQEEIQKPTASVPVVKEETPAPVKEVEVPVTTEKAVAAPAPEATEEKVVSEVAVPETEVTAVKEEEVATGKEILQSESFKEEGYLASELQEAEKNALAELKELVREALNKREFTAPPPPPAPVKEEKVEEKKTEETEEKKEEVKTEEKSLEAETKEEEKSAAPATVETKKEEILAAPAPIVAETKKEETPVAPAPVETKPAAPVVAETKKEEILPAAPVTTETKVEEKVVPVETTPAAPVTTETKEEEKAAPVTTETKEEEKAAPGETKKEEKATASTQVKRASKFIKDIFVSVTTSEKKKEEEKPAVVTIEKAFAADQEEETKTVEAVEESIVSITLPETAAYVEPEEVSIWGIPLLEDERSDVILLKFLRARDFKVKEAFTMLKNTVQWRKENKIDDLVSEDLEGSEFEKLVFTHGVDKQGHVVIYSSYGEFQNKEIFSDKEKLSKFLKWRIQFQEKCVRSLDFSPEAKSSFVFVSDFRNAPGLGQRALWQFIKRAVKQFEDNYPEFVAKELFINVPWWYIPYYKTFGSIITSPRTRSKMVLSGPSKSAETIFKYVAPEVVPVKYGGLSKDSPFTVEDGVTEAVVKSTSKYTIDLPATEGSTLSWELRVLGADVSYGAQFEPSNEASYTVIVSKNRKVGLTDEPVITDSFKASEAGKVVITIDNQTFKKKKVLYRSKTQA
B9: At3g02880 (protein, UniProt Q9M8T0 24-627)
chain: SDLESDRRALLAVRNSVRGRPLLWNMSASSPCNWHGVHCDAGRVTALRLPGSGLFGSLPIGGIGNLTQLKTLSLRFNSLSGPIPSDFSNLVLLRYLYLQGNAFSGEIPSLLFTLPSIIRINLGENKFSGRIPDNVNSATRLVTLYLERNQLSGPIPEITLPLQQFNVSSNQLNGSIPSSLSSWPRTAFEGNTLCGKPLDTCEAESPNGGDAGGPNTPPEKKDSDKLSAGAIVGIVIGCVVGLLLLLLILFCLCRKRKKEENVPSRNVEAPVAAATSSAAIPKETVVVVPPAKATGSESGAVNKDLTFFVKSFGEFDLDGLLKASAEVLGKGTVGSSYKASFEHGLVVAVKRLRDVVVPEKEFRERLHVLGSMSHANLVTLIAYYFSRDEKLLVFEYMSKGSLSAILHGNKGNGRTPLNWETRAGIALGAARAISYLHSRDGTTSHGNIKSSNILLSDSYEAKVSDYGLAPIISSTSAPNRIDGYRAPEITDARKISQKADVYSFGVLILELLTGKSPTHQQLNEEGVDLPRWVQSVTEQQTPSDVLDPELTRYQPEGNENIIRLLKIGMSCTAQFPDSRPSMAEVTRLIEEVSHSSGSPNPVSD
B10: REMORIN1.3 (protein, UniProt O80837 1-190)
chain: MAEEQKTSKVDVESPAVLAPAKEPTPAPVEVADEKIHNPPPVESKALAVVEKPIEEHTPKKASSGSADRDVILADLEKEKKTSFIKAWEESEKSKAENRAQKKISDVHAWENSKKAAVEAQLRKIEEKLEKKKAQYGEKMKNKVAAIHKLAEEKRAMVEAKKGEELLKAEEMGAKYRATGVVPKATCGCF

Chains of the proteins cited; added tags and fusions are not shown. Lines headed by an entry give the natural chain unless they say otherwise; changes in a name come on top.
UniProt Q88A90: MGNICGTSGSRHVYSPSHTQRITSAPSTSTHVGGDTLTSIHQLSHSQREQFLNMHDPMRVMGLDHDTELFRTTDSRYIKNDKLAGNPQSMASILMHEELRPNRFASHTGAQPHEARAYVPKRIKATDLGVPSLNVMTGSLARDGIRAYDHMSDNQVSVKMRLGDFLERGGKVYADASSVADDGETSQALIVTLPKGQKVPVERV
UniProt Q9SY56: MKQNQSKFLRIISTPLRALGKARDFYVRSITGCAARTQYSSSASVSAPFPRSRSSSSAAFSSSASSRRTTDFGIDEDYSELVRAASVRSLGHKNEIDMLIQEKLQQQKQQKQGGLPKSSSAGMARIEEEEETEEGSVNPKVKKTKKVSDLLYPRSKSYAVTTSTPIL
UniProt P93025: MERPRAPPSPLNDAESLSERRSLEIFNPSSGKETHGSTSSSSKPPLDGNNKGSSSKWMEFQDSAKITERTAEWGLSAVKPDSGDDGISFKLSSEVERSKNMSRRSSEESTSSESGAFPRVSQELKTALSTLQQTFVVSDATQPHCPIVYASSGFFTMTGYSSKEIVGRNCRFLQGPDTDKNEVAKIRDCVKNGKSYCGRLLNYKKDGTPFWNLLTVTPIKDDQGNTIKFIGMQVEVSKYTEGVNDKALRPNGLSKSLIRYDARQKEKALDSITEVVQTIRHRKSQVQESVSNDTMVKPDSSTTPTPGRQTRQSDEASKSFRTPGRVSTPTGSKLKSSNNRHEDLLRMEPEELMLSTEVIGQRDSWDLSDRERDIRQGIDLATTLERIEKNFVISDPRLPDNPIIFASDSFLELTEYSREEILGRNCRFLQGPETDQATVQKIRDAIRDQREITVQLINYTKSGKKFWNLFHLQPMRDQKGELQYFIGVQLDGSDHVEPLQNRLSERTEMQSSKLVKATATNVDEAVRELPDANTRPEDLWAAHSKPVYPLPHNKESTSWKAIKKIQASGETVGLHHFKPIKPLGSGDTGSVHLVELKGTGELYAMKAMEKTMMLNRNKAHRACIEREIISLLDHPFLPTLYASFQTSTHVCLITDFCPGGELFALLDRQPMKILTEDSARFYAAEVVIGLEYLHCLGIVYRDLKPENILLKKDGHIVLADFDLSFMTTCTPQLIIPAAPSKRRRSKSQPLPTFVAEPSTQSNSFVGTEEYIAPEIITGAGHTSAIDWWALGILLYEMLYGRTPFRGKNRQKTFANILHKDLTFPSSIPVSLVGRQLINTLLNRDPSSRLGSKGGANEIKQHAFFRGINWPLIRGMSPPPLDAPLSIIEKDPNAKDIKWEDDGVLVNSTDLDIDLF

These are yes or no findings as the source states them, for the method shown. In cells and extracts the contact can be indirect. These calls come from enrichment with a bait or labelling near it, and not all partners need be listed.

The test has as its target HopF2-BirA*-FLAG-HA (Pseudomonas syringae) (UniProt Q88A90). As to the kind of experiment: proximity labelling; BioID in leaves of transgenic Arabidopsis expressing HopF2-BirA*-FLAG-HA; 2 mM biotin infiltrated, 30 uM dexamethasone 24 h at 25 °C; streptavidin sepharose purification of combined soluble and insoluble fractions, on-bead digestion, LC-MS/MS; SAINT against Col-0, BFDR ≤ 0.01; preys significant with HopF2-BirA* but not with BirA* alone.
With At1g10140 (from UniProt Q9SY56), the binding result is listed as “binds”.
As to “PHOTOTROPIN 2 (from UniProt P93025 1-915)”, the binding result is “binds”.
To B1 belongs “binds”; to B2, “binds”.
On to B3, for which the binding entry is given as “binds”.
For B4, the binding entry is recorded as “binds”.
With B5, the binding entry was “binds”.
To B6 belongs “binds”; to B7, “binds”.
For B8, the binding entry is “binds”.
Consider B9, for which the binding result is “binds”.
For B10, the binding result is “binds”.
